# Publication PMC7862700
# The entries are a selection whose mix differs from that of the whole data set. At the low end of the ranking the order means little.
# Target: SPI1 (UniProt P17947)
# Assay: DAPPL (digital affinity profiling via proximity ligation, sequencing)
# Conditions: 10 mM Tris-HCl pH 7.5, 50 mM NaCl, 1 mM DTT, 4% glycerol, room temperature, 30 min; GST-TFs on glutathione beads, 16-mer random dsDNA library, 0.1% …; high values mean tight binding; double strand, one strand shown; scale: fold enrichment (6-mer frequency, TF over GST control)
row,Sequence,binding signal
1,AGAGGT,0.744
2,CGTGAC,0.522
3,ATGGAG,0.547
4,GAGAGC,0.354
5,GTCGTT,0.773
6,GGGACA,0.621
7,GGGCGC,0.57
8,AGACGT,0.437
9,GAGTCC,0.346
10,CCCAGC,0.937
11,CCAGGA,0.616
12,AGGGCC,0.933
13,AACGGG,0.802
14,GAGAAG,0.754
15,GTCAAG,0.786
16,ATCGGG,0.461
17,CGTGTA,0.624
18,ACCGAG,0.735
19,CGTAGA,0.698
20,TGCCAG,0.653

# Fetched one by one from above (2):
row,Sequence,binding signal
11,CCAGGA,0.616
14,GAGAAG,0.754

# More results.

row,Sequence,binding signal
1,CGGGGA,0.449
2,CAGGTT,0.661
3,CGGGCC,0.737
4,CAGGGT,0.812
5,CGCATA,0.73
6,AGGTTG,0.82
7,GGCGAA,0.721
8,AAAGTG,0.974
9,GGAAGG,0.813
10,CCGTAG,0.879
11,TCGGCC,0.733
12,ACAGGG,0.771
13,TATCGG,0.767
14,CGGTGA,0.439
15,GAGAGT,0.346
16,CCGTTG,0.798
17,GGGTCA,0.68
18,CAGGTC,0.681
19,GAGAGA,0.423
20,CGGGAC,0.532
